No constants are given. Whether binding was seen depends on the method and setting. Binding seen in cells or lysates may run through a third protein. A result given as binding can be weak or reduced; the word gives no strength.

Chains of the proteins cited; added tags and fusions are not shown. Lines headed by an entry give the natural chain unless they say otherwise; changes in a name come on top.
UniProt Q92520: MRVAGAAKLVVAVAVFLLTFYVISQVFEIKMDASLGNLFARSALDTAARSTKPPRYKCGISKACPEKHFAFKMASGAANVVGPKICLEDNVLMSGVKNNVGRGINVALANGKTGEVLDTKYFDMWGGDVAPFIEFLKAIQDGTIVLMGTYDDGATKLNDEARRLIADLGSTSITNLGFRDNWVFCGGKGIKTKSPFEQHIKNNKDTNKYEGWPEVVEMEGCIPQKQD
UniProt P53621: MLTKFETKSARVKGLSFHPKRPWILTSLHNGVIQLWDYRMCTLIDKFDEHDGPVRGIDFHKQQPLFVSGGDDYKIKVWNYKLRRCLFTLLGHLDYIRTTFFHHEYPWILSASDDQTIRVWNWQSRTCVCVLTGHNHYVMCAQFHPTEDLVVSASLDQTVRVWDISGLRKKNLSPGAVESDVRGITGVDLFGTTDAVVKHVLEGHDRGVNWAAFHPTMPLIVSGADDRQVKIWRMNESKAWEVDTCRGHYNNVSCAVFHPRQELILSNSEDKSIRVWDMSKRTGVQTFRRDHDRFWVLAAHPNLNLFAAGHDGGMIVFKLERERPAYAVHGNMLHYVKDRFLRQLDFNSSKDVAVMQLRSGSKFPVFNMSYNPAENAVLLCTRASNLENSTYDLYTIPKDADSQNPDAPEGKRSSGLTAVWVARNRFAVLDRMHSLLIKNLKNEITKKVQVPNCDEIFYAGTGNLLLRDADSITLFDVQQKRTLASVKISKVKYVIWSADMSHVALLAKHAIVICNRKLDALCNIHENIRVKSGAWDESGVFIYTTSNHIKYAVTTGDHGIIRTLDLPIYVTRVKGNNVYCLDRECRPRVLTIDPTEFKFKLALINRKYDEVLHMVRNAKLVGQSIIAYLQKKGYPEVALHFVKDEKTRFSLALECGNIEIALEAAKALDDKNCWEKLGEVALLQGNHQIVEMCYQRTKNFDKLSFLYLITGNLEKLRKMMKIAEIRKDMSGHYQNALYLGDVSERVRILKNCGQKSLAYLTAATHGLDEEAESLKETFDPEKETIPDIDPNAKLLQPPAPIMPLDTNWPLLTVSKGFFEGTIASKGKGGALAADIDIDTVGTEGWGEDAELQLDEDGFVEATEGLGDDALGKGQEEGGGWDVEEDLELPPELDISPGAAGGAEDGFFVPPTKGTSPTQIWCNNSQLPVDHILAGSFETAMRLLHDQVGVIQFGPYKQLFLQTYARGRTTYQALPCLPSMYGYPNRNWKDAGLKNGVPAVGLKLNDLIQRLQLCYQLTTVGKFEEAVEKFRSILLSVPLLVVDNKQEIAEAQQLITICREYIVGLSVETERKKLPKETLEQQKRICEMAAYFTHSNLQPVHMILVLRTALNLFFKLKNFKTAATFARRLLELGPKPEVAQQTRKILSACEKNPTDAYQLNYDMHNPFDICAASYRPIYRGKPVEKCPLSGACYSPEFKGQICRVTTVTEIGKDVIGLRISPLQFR
UniProt Q9Y678: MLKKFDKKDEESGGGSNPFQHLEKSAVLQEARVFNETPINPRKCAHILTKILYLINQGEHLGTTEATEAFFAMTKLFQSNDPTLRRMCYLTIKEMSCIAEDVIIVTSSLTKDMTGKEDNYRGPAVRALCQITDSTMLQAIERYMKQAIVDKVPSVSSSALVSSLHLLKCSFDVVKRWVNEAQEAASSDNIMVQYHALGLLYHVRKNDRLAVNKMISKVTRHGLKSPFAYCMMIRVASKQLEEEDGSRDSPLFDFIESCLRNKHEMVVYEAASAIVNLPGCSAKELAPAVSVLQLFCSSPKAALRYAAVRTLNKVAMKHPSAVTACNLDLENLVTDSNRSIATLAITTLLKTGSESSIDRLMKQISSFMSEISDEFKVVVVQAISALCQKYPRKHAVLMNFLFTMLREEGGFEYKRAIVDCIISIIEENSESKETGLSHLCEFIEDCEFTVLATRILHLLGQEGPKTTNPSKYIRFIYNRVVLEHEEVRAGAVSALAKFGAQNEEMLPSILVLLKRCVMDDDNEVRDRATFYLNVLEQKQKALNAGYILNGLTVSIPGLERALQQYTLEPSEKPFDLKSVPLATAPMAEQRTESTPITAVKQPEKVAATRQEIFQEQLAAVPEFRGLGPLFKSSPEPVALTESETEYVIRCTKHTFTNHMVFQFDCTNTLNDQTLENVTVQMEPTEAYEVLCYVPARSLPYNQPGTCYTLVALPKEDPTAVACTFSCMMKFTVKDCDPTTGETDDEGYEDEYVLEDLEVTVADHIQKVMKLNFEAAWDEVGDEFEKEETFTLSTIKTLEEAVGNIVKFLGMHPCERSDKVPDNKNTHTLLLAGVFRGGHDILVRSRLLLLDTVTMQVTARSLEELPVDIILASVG

Results on two substances are retold here after article PMC13198017.

This assay addresses Fam3C (human (endogenous in SUM159)) (UniProt Q92520). In words: co-IP; SUM159 (derivative) cell lysates immunoprecipitated with Fam3C antibody or IgG control; immunoblot with anti-CopG or anti-CopA, anti-Fam3C and anti-HSP90 antibodies. In general terms: Immunoblotting shows a protein as a band on a membrane.

Regarding CopA (from UniProt P53621 1-1224), the binding result is given as “binds”.
On to CopG (from UniProt Q9Y678 1-874), for which the binding entry is given as “binds”.
